Laboratory results: PubChem BioAssay AID1159578 (Peter MacCallum Cancer Centre, 2015)
In all, the deposit lists about 18,000 reagents; shown is an unselected part. Of all reagents, about 1,030 (5.7%) are marked active. 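Inactive calls also include pools with fewer than 3300 nuclei, whose migration was not assessed.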 The raw values are shown without normalisation. A number with no mark means an inactive call. Further read-outs or replicates are left out here. Reagent sequences are not shown.

- Test: 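Genome-wide hunt for genes controlling movement of lymphatic endothelial cells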 (primary screen)
- Cell system: human lymphatic endothelial cells
- Reagents: siRNA pool against human genes, 40 nM
- Time to read-out: 48 h after transfection
- Measured: 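High-content imaging of dye-stained cells in a scratch assay measures filled wound area and nuclei per well; duplicate means given as ratio to mock and robust z-score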
- Direction: migration robust z-score: higher = faster migration into the scratch; nuclei per well: higher = more cells in the well
- Hit rule: 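Migration changed when robust z exceeds 2 or falls below -2 and mean nuclei number is at least 3300; otherwise not called changed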
- Meaning of the calls: active = migration changed; inactive = no migration change, or too few cells

BCL2L10 (GeneID 10017) → migration robust z-score = -0.96; nuclei per well, duplicate mean = 6517
KCTD7 (GeneID 154881) → migration robust z-score = 1.04; nuclei per well, duplicate mean = 6004
MUC4 (GeneID 4585) → migration robust z-score = 0.14; nuclei per well, duplicate mean = 5536
RPS18 (GeneID 6222) → migration robust z-score = -2.9 (active); nuclei per well, duplicate mean = 3562
PTP4A3 (GeneID 11156) → migration robust z-score = 0.75; nuclei per well, duplicate mean = 5284
RSKR (GeneID 124923) → migration robust z-score = -1.12; nuclei per well, duplicate mean = 4996
GRAMD2B (GeneID 65983) → migration robust z-score = 0.73; nuclei per well, duplicate mean = 5523
RARRES1 (GeneID 5918) → migration robust z-score = 0.52; nuclei per well, duplicate mean = 6121
HOXB1 (GeneID 3211) → migration robust z-score = -0.76; nuclei per well, duplicate mean = 3748
EPHA8 (GeneID 2046) → migration robust z-score = -1.58; nuclei per well, duplicate mean = 3462
NCMAP (GeneID 400746) → migration robust z-score = -0.51; nuclei per well, duplicate mean = 6831
LSMEM2 (GeneID 132228) → migration robust z-score = 1.69; nuclei per well, duplicate mean = 7866
DTD2 (GeneID 112487) → migration robust z-score = -0.64; nuclei per well, duplicate mean = 4927
H4C4 (GeneID 8360) → migration robust z-score = -0.01; nuclei per well, duplicate mean = 5960
ZNF395 (GeneID 55893) → migration robust z-score = 0.11; nuclei per well, duplicate mean = 5802
DVL1 (GeneID 1855) → migration robust z-score = 0.94; nuclei per well, duplicate mean = 6886
LHPP (GeneID 64077) → migration robust z-score = 0.36; nuclei per well, duplicate mean = 5664

Next part (2 carried over from the part before).
DVL1 (GeneID 1855) → migration robust z-score = 0.94; nuclei per well, duplicate mean = 6886
LHPP (GeneID 64077) → migration robust z-score = 0.36; nuclei per well, duplicate mean = 5664
LARP4B (GeneID 23185) → migration robust z-score = 0.66; nuclei per well, duplicate mean = 5235
OR4K1 (GeneID 79544) → migration robust z-score = 1.03; nuclei per well, duplicate mean = 5450
FGD2 (GeneID 221472) → migration robust z-score = 0.72; nuclei per well, duplicate mean = 4766
TFCP2 (GeneID 7024) → migration robust z-score = -0.18; nuclei per well, duplicate mean = 4222
ACTL6A (GeneID 86) → migration robust z-score = -0.7; nuclei per well, duplicate mean = 4945
OSR1 (GeneID 130497) → migration robust z-score = 0.85; nuclei per well, duplicate mean = 5484
MAGEA12 (GeneID 4111) → migration robust z-score = -0.79; nuclei per well, duplicate mean = 5275
LGALS1 (GeneID 3956) → migration robust z-score = -2.62 (active); nuclei per well, duplicate mean = 3640
ARID1A (GeneID 8289) → migration robust z-score = -0.28; nuclei per well, duplicate mean = 5134
HSD17B13 (GeneID 345275) → migration robust z-score = 0.33; nuclei per well, duplicate mean = 7427
